# Measured values: the supplement of paper PMC8728848
# The other results are listed elsewhere or left out.
# Key:
# Test in all cases: glycan array binding signal (z-score within array); higher = stronger binding
# Conditions in all cases: glycan notation: IUPAC condensed, linker removed
# [1] = target: GlcNAc(b1-3)Gal(b1-4)GlcNAc(b1-3)Gal(b1-4)GlcNAc(b1-3)GalNAc
# Procedure, shortened: (§1)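 Glycan array data were curated from 3228 arrays in the Consortium for Functional Glycomics database and kept only where the protein sequence was available. Glycan names were converted to IUPAC-condensed notation, and columns mapping to the same glycan were averaged. The binding signal is a within-array Z-score, averaged across arrays of the same protein sequence at different concentrations or buffers and across linkers. Negative Z-scores can be read as non-binding.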
# [2] = target: GlcNAc(b1-3)Gal(b1-4)GlcNAc(b1-3)GalNAc
# Procedure, shortened: as §1
# [3] = target: GlcNAc(b1-3)Gal(b1-4)GlcNAc(b1-3)[GlcNAc(b1-3)Gal(b1-4)GlcNAc(b1-3)]GalNAc
# Procedure, shortened: as §1
# [4] = target: GlcNAc(b1-3)Gal(b1-4)GlcNAc(b1-6)[Gal(b1-3)]GalNAc
# Procedure, shortened: as §1
# [5] = target: GlcNAc(b1-3)Gal(b1-4)GlcNAc(b1-6)[GlcNAc(b1-3)Gal(b1-3)]GalNAc
# Procedure, shortened: as §1
# [6] = target: GlcNAc(b1-3)Gal(b1-4)GlcNAc(b1-6)[GlcNAc(b1-3)]Gal(b1-4)GlcNAc
# Procedure, shortened: as §1
# [7] = target: GlcNAc(b1-3)GalNAc
# Procedure, shortened: as §1
# [8] = target: GlcNAc(b1-3)Man
# Procedure, shortened: as §1
# [9] = target: GlcNAc(b1-3)[GlcNAc(b1-4)][GlcNAc(b1-6)]GlcNAc
# Procedure, shortened: as §1
# [10] = target: GlcNAc(b1-3)[GlcNAc(b1-6)]Gal(b1-4)GlcNAc
# Procedure, shortened: as §1
# [11] = target: GlcNAc(b1-3)[GlcNAc(b1-6)]GalNAc
# Procedure, shortened: as §1
# [12] = target: GlcNAc(b1-4)Gal(b1-4)GlcNAc
# Procedure, shortened: as §1
# [13] = target: GlcNAc(b1-4)GlcNAc
# Procedure, shortened: as §1
# [14] = target: GlcNAc(b1-4)GlcNAc(b1-4)GlcNAc
# Procedure, shortened: as §1
# [15] = target: GlcNAc(b1-4)GlcNAc(b1-4)GlcNAc(b1-4)GlcNAc(b1-4)GlcNAc
# Procedure, shortened: as §1
# [16] = target: GlcNAc(b1-4)GlcNAc(b1-4)GlcNAc(b1-4)GlcNAc(b1-4)GlcNAc(b1-4)GlcNAc
# Procedure, shortened: as §1
# [17] = target: GlcNAc(b1-4)[GlcNAc(b1-6)]GalNAc
# Procedure, shortened: as §1
# [18] = target: GlcNAc(b1-6)Gal(b1-4)GlcNAc
# Procedure, shortened: as §1
# [19] = target: GlcNAc(b1-6)GalNAc
# Procedure, shortened: as §1
# [20] = target: GlcNAc6S(b1-3)Gal(b1-4)GlcNAc
# Procedure, shortened: as §1
# [21] = target: Kdn(a2-3)Gal(b1-3)GalNAc
# Procedure, shortened: as §1
# [22] = target: Kdn(a2-3)Gal(b1-3)GlcNAc
# Procedure, shortened: as §1
# [23] = target: Kdn(a2-3)Gal(b1-4)Glc
# Procedure, shortened: as §1
# [24] = target: Kdn(a2-3)Gal(b1-4)GlcNAc
# Procedure, shortened: as §1
# [25] = target: Kdn(a2-3)Gal(b1-4)[Fuc(a1-3)]GlcNAc
# Procedure, shortened: as §1
# [26] = target: Kdn(a2-6)Gal(b1-4)GlcNAc
# Procedure, shortened: as §1
# [27] = target: Man(a1-2)Man(a1-2)Man(a1-3)Man
# Procedure, shortened: as §1
# [28] = target: Man(a1-2)Man(a1-2)Man(a1-6)[Man(a1-3)]Man
# Procedure, shortened: as §1
# [29] = target: Man(a1-2)Man(a1-3)Man
# Procedure, shortened: as §1
# [30] = target: Man(a1-2)Man(a1-3)[Man(a1-2)Man(a1-6)]Man
# Procedure, shortened: as §1
# [31] = target: Man(a1-2)Man(a1-3)[Man(a1-2)Man(a1-6)]Man(a1-6)[Man(a1-2)Man(a1-2)Man(a1-3)]Man
# Procedure, shortened: as §1
# [32] = target: Man(a1-2)Man(a1-3)[Man(a1-2)Man(a1-6)]Man(a1-6)[Man(a1-2)Man(a1-2)Man(a1-3)]Man(b1-4)GlcNAc(b1-4)GlcNAc
# Procedure, shortened: as §1
# [33] = target: Man(a1-2)Man(a1-3)[Man(a1-6)]Man(a1-6)[Man(a1-2)Man(a1-3)]Man(b1-4)GlcNAc(b1-4)GlcNAc
# Procedure, shortened: as §1
# [34] = target: Man(a1-2)Man(a1-6)[Man(a1-3)]Man(a1-6)[Man(a1-2)Man(a1-2)Man(a1-3)]Man
# Procedure, shortened: as §1
# [35] = target: Man(a1-2)Man(a1-6)[Man(a1-3)]Man(a1-6)[Man(a1-2)Man(a1-2)Man(a1-3)]Man(b1-4)GlcNAc(b1-4)GlcNAc
# Procedure, shortened: as §1
# [36] = target: Man(a1-3)[Man(a1-6)]Man
# Procedure, shortened: as §1
# [37] = target: Man(a1-3)[Man(a1-6)]Man(a1-6)[Man(a1-2)Man(a1-3)]Man(b1-4)GlcNAc(b1-4)GlcNAc
# Procedure, shortened: as §1
binder,measurement,setting,value
GS13814A-bth-462-26-462 (Bacteroides thetaiotaomicron) (protein) DDRDNLMVNDQIGLLHSTYTETEIFRGMDTPYQLFVIKSGKGKQETEVSISVDETVLQSYNTDNGTSIQLLPSDCYTILQPALRLNDSDYRKAFDIKWNADRLSDLLSTGKEYGLPIQMSVVQNFISADDERLKTIIVPTIKEPYLQMDVPGMSPVTDFMPTFGDLNERELFVKIRTNYSNDEDISFQIEVDPQLVIDYNTAHGTAYKMLPESSFTVDNKGVILTGMKETFIKIKYHKKGLIPEEGTYLFGDYVLPLRITSVSKYGISPDAASKLYTVKFQPDPIDKKGWSVIDFNNCCTQDGGWYLNMGWGVESLIDNNPGTQWLCRWDVKEPLPYYFVFDMGKEYTLFRFGFANPVAPAAHVWAGTSKAGYVEASIDNENWVKLKDWTSPKIGEPNVNMDVPATQARYIRFVITDTYPTYDGLRVSLGEVYAWGM,glycan array binding signal (z-score),[1],-0.105
same,glycan array binding signal (z-score),[2],-0.438
same,glycan array binding signal (z-score),[3],-0.126
same,glycan array binding signal (z-score),[4],0.535
same,glycan array binding signal (z-score),[5],0.331
same,glycan array binding signal (z-score),[6],0.262
same,glycan array binding signal (z-score),[7],0.754
same,glycan array binding signal (z-score),[8],0.659
same,glycan array binding signal (z-score),[9],1.62
same,glycan array binding signal (z-score),[10],-0.285
same,glycan array binding signal (z-score),[11],1.5
same,glycan array binding signal (z-score),[12],-0.159
same,glycan array binding signal (z-score),[13],0.8
same,glycan array binding signal (z-score),[14],-1.12
same,glycan array binding signal (z-score),[15],0.117
same,glycan array binding signal (z-score),[16],-0.27
same,glycan array binding signal (z-score),[17],-0.226
same,glycan array binding signal (z-score),[18],-0.9
same,glycan array binding signal (z-score),[19],-0.198
same,glycan array binding signal (z-score),[20],0.872
same,glycan array binding signal (z-score),[21],0.216
same,glycan array binding signal (z-score),[22],-0.251
same,glycan array binding signal (z-score),[23],0.07
same,glycan array binding signal (z-score),[24],0.169
same,glycan array binding signal (z-score),[25],-0.822
same,glycan array binding signal (z-score),[26],0.037
same,glycan array binding signal (z-score),[27],-0.706
same,glycan array binding signal (z-score),[28],-0.535
same,glycan array binding signal (z-score),[29],-0.584
same,glycan array binding signal (z-score),[30],-1.72
same,glycan array binding signal (z-score),[31],0.035
same,glycan array binding signal (z-score),[32],0.254
same,glycan array binding signal (z-score),[33],-0.217
same,glycan array binding signal (z-score),[34],-0.301
same,glycan array binding signal (z-score),[35],-1.04
same,glycan array binding signal (z-score),[36],0.087
same,glycan array binding signal (z-score),[37],0.039

# A second format for part of the listing above:
binder	measurement	setting	value
GS13814A-bth-462-26-462 (Bacteroides thetaiotaomicron) (protein) DDRDNLMVNDQIGLLHSTYTETEIFRGMDTPYQLFVIKSGKGKQETEVSISVDETVLQSYNTDNGTSIQLLPSDCYTILQPALRLNDSDYRKAFDIKWNADRLSDLLSTGKEYGLPIQMSVVQNFISADDERLKTIIVPTIKEPYLQMDVPGMSPVTDFMPTFGDLNERELFVKIRTNYSNDEDISFQIEVDPQLVIDYNTAHGTAYKMLPESSFTVDNKGVILTGMKETFIKIKYHKKGLIPEEGTYLFGDYVLPLRITSVSKYGISPDAASKLYTVKFQPDPIDKKGWSVIDFNNCCTQDGGWYLNMGWGVESLIDNNPGTQWLCRWDVKEPLPYYFVFDMGKEYTLFRFGFANPVAPAAHVWAGTSKAGYVEASIDNENWVKLKDWTSPKIGEPNVNMDVPATQARYIRFVITDTYPTYDGLRVSLGEVYAWGM	glycan array binding signal (z-score)	[18]	-0.9
same	glycan array binding signal (z-score)	[27]	-0.706
